The other results are listed elsewhere or left out.
What was measured:
Experiment in all cases: log2 fold change, soluble protein after heating vs DMSO (PISA); higher = thermal stabilisation; K562 lysate, 10 uM; active = over 0.2 and 3.5 SD of the protein, either way, in both replicates (recomputed)
erlotinib = compound: C#Cc1cccc(Nc2ncnc3cc(OCCOC)c(OCCOC)cc23)c1 [erlotinib]
Outline: (§1)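 Dounce homogenisation of K562 pellets in PBS pH 7.4 with 1 mM MgCl2 produced a crude extract, used at 1 mg/mL protein. Exposure to 10 μM compound lasted 30 min, and aliquots were then heated for 3 min across 48°C-58°C, pooled and brought to 0.5% NP-40 at 4°C. The supernatant after 21,000xg for 90 min was quantified by TMTpro 16plex LC-MS/MS with channel sums equalised. Duplicate values are given as log-two fold change in thermal stability relative to solvent controls.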

Protein sequences, listed by entry. Tags and fused reporters are not part of them. Lines headed by an entry give the natural chain unless they say otherwise; changes in a name come on top.
UniProt Q9H1H9: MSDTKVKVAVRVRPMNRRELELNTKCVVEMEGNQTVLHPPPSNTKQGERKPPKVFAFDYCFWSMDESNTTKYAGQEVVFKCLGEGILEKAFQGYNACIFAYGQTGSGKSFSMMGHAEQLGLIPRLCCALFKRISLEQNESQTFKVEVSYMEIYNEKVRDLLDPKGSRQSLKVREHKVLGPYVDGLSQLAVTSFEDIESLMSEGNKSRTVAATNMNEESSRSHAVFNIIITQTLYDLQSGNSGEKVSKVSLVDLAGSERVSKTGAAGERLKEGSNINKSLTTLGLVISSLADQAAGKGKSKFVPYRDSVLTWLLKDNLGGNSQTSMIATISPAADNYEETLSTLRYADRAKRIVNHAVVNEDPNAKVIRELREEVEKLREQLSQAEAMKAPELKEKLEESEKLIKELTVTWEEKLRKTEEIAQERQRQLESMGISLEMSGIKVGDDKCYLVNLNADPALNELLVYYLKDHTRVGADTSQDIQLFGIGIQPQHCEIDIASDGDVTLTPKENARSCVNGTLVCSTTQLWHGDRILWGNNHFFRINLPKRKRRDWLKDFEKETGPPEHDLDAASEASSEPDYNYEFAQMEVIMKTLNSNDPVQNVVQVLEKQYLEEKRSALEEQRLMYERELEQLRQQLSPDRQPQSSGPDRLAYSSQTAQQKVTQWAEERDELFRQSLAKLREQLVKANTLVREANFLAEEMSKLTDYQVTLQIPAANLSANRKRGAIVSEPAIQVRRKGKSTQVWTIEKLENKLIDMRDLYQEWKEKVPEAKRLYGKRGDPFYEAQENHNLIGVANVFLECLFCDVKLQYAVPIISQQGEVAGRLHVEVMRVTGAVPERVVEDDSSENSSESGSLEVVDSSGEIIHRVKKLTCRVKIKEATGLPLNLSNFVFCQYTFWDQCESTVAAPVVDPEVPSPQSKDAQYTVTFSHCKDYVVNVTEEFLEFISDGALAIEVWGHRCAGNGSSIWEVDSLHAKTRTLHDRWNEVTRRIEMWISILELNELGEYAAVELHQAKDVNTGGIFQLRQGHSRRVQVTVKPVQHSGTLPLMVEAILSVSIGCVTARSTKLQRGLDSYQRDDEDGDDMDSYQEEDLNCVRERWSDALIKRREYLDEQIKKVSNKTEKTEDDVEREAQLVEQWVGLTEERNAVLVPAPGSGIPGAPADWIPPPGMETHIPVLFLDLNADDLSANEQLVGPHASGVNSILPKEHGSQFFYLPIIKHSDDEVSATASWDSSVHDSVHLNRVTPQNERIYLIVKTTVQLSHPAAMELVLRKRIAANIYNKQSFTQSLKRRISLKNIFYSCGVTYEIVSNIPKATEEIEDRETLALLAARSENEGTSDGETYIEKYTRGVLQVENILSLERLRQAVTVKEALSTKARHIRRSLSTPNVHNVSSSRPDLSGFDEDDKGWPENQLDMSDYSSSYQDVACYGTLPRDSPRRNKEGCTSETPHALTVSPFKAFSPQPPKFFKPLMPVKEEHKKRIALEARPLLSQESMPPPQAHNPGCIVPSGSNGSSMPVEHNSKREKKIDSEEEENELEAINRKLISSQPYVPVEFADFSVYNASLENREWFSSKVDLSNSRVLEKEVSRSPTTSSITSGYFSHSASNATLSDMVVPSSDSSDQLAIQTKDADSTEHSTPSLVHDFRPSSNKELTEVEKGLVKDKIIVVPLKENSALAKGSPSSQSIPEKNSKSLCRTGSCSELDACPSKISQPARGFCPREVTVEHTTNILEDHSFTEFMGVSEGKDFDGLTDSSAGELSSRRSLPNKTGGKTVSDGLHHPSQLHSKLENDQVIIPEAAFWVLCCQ
UniProt Q14667: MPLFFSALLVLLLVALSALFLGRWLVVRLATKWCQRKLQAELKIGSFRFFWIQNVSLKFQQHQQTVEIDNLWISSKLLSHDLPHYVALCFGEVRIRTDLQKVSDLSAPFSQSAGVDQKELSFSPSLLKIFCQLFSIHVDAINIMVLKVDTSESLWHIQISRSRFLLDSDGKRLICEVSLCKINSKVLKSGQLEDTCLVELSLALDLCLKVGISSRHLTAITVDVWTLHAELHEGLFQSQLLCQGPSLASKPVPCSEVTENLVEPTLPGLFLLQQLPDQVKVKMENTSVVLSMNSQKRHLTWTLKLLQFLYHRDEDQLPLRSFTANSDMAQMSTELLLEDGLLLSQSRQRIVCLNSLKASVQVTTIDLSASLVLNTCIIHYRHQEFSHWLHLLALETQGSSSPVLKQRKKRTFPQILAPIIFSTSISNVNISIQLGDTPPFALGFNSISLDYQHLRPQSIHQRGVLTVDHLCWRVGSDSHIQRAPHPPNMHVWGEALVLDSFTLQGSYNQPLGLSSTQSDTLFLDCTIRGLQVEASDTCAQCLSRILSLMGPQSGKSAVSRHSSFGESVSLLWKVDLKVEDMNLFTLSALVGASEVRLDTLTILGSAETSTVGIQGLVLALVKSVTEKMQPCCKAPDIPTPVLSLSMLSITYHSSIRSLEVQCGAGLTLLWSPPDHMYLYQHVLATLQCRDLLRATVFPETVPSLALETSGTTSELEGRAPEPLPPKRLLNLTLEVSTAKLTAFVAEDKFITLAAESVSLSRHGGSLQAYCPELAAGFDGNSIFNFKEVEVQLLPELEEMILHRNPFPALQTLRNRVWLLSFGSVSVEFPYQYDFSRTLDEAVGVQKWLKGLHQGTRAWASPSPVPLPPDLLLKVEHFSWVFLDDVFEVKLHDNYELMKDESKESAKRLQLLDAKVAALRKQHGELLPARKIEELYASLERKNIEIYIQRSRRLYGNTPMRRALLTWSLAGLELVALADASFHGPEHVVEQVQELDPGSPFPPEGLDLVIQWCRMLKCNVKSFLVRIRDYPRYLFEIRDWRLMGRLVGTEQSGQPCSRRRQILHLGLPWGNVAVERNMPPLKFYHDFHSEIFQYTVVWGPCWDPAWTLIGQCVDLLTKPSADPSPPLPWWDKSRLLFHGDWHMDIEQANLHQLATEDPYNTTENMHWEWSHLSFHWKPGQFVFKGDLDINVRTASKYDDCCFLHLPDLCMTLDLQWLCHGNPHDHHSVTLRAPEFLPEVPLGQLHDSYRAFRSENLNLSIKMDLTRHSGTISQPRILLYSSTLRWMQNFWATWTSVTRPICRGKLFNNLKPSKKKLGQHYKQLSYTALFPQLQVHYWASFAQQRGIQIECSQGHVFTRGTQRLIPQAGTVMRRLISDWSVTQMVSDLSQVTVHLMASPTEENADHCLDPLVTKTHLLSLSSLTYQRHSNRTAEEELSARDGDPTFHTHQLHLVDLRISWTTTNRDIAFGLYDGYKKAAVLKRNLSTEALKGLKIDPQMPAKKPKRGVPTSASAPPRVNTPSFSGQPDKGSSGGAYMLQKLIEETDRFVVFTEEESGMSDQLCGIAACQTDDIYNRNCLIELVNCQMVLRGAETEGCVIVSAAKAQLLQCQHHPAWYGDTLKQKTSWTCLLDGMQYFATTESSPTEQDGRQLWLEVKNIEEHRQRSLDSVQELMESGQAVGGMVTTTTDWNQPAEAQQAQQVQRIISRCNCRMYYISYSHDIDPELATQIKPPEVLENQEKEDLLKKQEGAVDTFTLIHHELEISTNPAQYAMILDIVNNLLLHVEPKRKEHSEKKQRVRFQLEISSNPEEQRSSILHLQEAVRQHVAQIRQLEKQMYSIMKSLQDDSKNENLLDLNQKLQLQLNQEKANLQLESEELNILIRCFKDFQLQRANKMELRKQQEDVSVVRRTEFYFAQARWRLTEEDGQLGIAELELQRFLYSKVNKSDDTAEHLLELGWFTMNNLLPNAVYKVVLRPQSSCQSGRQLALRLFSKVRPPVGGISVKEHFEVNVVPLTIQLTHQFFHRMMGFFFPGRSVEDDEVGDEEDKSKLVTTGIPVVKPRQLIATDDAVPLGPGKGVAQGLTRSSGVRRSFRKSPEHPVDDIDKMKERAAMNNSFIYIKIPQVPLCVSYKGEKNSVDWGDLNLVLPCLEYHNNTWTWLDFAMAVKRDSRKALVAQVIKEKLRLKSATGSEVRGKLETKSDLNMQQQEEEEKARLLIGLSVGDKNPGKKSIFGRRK
UniProt P13473: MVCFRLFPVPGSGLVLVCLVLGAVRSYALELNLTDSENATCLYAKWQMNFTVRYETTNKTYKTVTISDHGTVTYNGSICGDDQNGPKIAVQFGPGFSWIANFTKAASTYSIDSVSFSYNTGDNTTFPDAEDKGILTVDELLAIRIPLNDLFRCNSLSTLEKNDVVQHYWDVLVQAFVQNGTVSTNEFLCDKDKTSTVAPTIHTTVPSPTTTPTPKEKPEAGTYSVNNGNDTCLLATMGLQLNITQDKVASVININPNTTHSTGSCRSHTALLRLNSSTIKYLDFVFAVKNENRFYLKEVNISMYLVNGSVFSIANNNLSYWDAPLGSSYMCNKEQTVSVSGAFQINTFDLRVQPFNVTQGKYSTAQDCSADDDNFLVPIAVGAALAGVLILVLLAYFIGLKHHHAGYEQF
UniProt P11279: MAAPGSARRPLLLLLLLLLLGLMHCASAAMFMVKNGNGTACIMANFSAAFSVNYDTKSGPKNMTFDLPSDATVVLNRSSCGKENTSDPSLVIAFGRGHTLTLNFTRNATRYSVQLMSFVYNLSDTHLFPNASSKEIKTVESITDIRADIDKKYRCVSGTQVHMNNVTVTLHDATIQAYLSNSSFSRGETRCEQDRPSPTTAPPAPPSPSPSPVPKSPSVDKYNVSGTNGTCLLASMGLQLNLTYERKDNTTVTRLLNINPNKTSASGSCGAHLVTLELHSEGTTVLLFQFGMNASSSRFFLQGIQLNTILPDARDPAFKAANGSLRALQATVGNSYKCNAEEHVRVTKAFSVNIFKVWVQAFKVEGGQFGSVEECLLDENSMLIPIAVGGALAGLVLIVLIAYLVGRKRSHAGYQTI
UniProt Q86UP2: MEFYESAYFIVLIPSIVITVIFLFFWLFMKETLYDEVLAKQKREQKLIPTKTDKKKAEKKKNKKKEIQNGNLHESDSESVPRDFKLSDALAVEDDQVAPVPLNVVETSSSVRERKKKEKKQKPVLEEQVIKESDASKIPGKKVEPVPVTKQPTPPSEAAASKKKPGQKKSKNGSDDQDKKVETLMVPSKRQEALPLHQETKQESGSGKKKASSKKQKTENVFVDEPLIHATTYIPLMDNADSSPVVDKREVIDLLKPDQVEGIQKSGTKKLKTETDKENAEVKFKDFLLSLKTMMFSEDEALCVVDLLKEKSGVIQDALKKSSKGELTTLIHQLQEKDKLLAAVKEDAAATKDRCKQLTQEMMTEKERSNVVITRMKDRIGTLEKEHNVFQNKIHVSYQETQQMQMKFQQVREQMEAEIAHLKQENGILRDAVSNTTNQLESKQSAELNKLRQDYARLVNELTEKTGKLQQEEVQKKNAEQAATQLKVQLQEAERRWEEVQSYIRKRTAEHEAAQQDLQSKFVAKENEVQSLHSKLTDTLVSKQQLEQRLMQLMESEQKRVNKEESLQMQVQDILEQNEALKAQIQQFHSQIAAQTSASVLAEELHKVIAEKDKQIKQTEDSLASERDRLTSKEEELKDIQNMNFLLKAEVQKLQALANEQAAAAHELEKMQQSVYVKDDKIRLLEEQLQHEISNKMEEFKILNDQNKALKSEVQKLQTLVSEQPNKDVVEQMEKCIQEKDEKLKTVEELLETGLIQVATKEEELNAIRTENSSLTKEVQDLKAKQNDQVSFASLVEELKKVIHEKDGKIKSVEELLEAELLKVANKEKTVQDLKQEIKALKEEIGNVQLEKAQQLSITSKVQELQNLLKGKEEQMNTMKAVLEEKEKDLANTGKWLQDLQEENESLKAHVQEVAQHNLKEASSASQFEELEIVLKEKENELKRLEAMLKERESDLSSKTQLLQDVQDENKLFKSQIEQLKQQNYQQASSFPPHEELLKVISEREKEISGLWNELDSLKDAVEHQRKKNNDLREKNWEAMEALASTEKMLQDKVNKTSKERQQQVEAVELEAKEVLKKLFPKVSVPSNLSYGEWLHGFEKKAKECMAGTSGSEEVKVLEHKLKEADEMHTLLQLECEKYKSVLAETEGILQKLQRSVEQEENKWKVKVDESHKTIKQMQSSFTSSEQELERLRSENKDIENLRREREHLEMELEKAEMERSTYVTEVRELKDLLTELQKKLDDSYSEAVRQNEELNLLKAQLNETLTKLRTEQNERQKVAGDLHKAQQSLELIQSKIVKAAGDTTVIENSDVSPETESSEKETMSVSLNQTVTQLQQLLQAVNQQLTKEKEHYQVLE
UniProt Q9UN81: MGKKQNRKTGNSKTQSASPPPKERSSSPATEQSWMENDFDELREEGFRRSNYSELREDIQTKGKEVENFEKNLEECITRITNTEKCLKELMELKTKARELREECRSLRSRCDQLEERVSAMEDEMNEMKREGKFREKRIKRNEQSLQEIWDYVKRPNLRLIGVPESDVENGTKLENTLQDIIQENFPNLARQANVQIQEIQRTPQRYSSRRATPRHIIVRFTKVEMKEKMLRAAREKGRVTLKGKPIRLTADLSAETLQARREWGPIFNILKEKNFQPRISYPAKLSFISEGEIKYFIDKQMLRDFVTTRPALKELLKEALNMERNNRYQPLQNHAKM

[1] = compound: C/C(=N\NC(=O)C1=CC(=CC=C1)S(=O)(=O)N2CCOCC2)/C3=C(C=CC(=C3)Cl)O
Outline: as §1

[2] = compound: C1=CC(=CC=C1C2=NC3=C(N2)C=C(C=C3)C(=O)N)OC4=CC=C(C=C4)Cl
Outline: as §1

[3] = compound: C1=CC2=C(C=CC(=C2)/C=C\3/C(=O)NC(=NCC4=CC=CS4)S3)N=C1
Outline: as §1

[4] = compound: C1=CC2=NC=CN=C2C=C1/C=C/3\C(=O)NC(=O)S3
Outline: as §1

[5] = compound: C1=CC=C(C=C1)C2=NC(=C(N2)C3=CC=NC=C3)C4=CC(=C(C=C4)Cl)O
Outline: as §1

[6] = compound: C1=CC=C2C(=C1)C3=NNC4=CC=CC(=C43)C2=O
Outline: as §1

[7] = compound: C1CCN(C1)C(=O)NC2=CC=CC(=C2)NC3=NC=C(C(=N3)NCCC4=CN=CN4)Br
Outline: as §1

[8] = compound: C1CN(CCC1(CC2=CC=C(C=C2)Cl)N)C3=NC=NC4=C3C=CN4
Outline: as §1

IRAK-1-4 Inhibitor I = compound: C1COCCN1CCN2C3=CC=CC=C3N=C2NC(=O)C4=CC(=CC=C4)[N+](=O)[O-] [IRAK-1-4 Inhibitor I]
Outline: as §1

ibrutinib = compound: C=CC(=O)N1CCC[C@@H](n2nc(-c3ccc(Oc4ccccc4)cc3)c3c(N)ncnc32)C1 [ibrutinib]
Outline: as §1

[9] = compound: CC(=O)c1cnc2ccc(-c3cc(Cl)c(O)c(Cl)c3)nc2c1N[C@H]1CC[C@H](CN(C)C)CC1
Outline: as §1

ralimetinib = compound: CC(C)(C)Cn1c(N)nc2ccc(-c3[nH]c(C(C)(C)C)nc3-c3ccc(F)cc3)nc21 [ralimetinib]
Outline: as §1

[10] = compound: CC(C)(O)CC(=O)NCCn1ccc2ncnc(Nc3ccc(Oc4cccc(C(F)(F)F)c4)c(Cl)c3)c21
Outline: as §1

[11] = compound: CC(C)C1=C2N=C(C=C(N2N=C1)NCC3=CC=CC=C3)NCCCCCCN
Outline: as §1

[12] = compound: CC1=C(C(CC(=O)N1)C2=CC=C(C=C2)C(F)(F)F)C(=O)NC3=C(C=C4C(=C3)C=NN4)F
Outline: as §1

[13] = compound: CC1=C(C2=C(C=C1)C(=O)C3=CC=CC=C3N2CCCN)C
Outline: as §1

[14] = compound: CC1=C(C=C(C=C1)NC(=O)C2=CC(=CC=C2)C(C)(C)C#N)NC3=CC4=C(C=C3)N=CN(C4=O)C
Outline: as §1

[15] = compound: CC1=C(C=C(C=C1)NC(=O)C2=CC(=CC=C2)N(C)C)NC(=O)C3=CC=C(C=C3)O
Outline: as §1

[16] = compound: CC1=CC=C(C=C1)SC2=C3C=C(SC3=CN=C2)C(=O)N
Outline: as §1

Row | Target | log2 fold change (erlotinib) | log2 fold change [1] | log2 fold change [2] | log2 fold change [3] | log2 fold change [4] | log2 fold change [5] | log2 fold change [6] | log2 fold change [7] | log2 fold change [8] | log2 fold change (IRAK-1-4 Inhibitor I) | log2 fold change (ibrutinib) | log2 fold change [9] | log2 fold change (ralimetinib) | log2 fold change [10] | log2 fold change [11] | log2 fold change [12] | log2 fold change [13] | log2 fold change [14] | log2 fold change [15] | log2 fold change [16]
1 | KEL (UniProt P23276) | inactive: -0.005 | inactive: 0.023 | inactive: -0.014 | inactive: 0.021 | inactive: -0.072 | inactive: -0.033 | inactive: -0.004 | inactive: -0.015 | inactive: -0.047 | inactive: 0.015 | inactive: 0.052 | inactive: 0.026 | inactive: -0.044 | inactive: -0.05 | inactive: 0.019 | inactive: -0.044 | inactive: -0.041 | inactive: -0.001 | inactive: -0.036 | inactive: -0.013
2 | KIF13A isoform 4 (UniProt Q9H1H9) | inactive: 0.05 | inactive: -0.014 | inactive: -0.003 | inactive: -0.013 | inactive: -0.008 | inactive: -0.011 | inactive: 0.059 | inactive: -0.009 | inactive: 0.011 | inactive: -0.041 | inactive: 0.036 | inactive: -0.012 | inactive: 0.018 | inactive: -0.027 | inactive: -0.039 | inactive: -0.067 | inactive: -0.004 | inactive: -0.042 | inactive: 0.009 | inactive: 0.014
3 | KIAA0100 (UniProt Q14667) | inactive: -0.069 | inactive: 0.021 | inactive: 0.029 | inactive: -0.196 | inactive: 0.013 | inactive: -0.03 | inactive: -0.141 | inactive: 0.055 | inactive: 0.236 | inactive: 0.011 | inactive: -0.047 | inactive: 0 | inactive: -0.027 | inactive: -0.167 | inactive: 0.042 | inactive: 0.009 | inactive: -0.091 | inactive: -0.005 | inactive: 0.068 | inactive: 0.036
4 | LAMP2 (UniProt P13473) | inactive: -0.054 | inactive: 0.009 | inactive: 0.034 | inactive: 0.018 | inactive: 0.008 | inactive: -0.048 | inactive: 0.096 | inactive: 0.007 | inactive: -0.023 | inactive: 0.035 | inactive: -0.005 | inactive: -0.008 | inactive: 0.005 | inactive: -0.019 | inactive: -0.031 | inactive: 0.027 | inactive: 0.023 | inactive: -0.034 | inactive: 0.001 | inactive: 0.02
5 | LAMP1 (UniProt P11279) | inactive: 0.024 | inactive: 0.012 | inactive: 0.021 | inactive: -0.009 | inactive: 0.012 | inactive: 0.006 | inactive: -0.006 | inactive: -0.023 | inactive: 0.038 | inactive: 0.091 | inactive: 0.034 | inactive: -0.031 | inactive: -0.003 | inactive: -0.11 | inactive: 0.008 | inactive: 0.01 | inactive: 0.003 | inactive: 0.022 | inactive: -0.04 | inactive: -0.032
6 | LARP1 (UniProt Q6PKG0) | inactive: -0.005 | inactive: 0.031 | inactive: -0.029 | inactive: -0.001 | inactive: -0.013 | inactive: 0.014 | inactive: 0.017 | inactive: 0.023 | inactive: -0.017 | inactive: -0.012 | inactive: 0.004 | inactive: -0.015 | inactive: 0.008 | inactive: 0.021 | inactive: -0.001 | inactive: 0.003 | inactive: -0.029 | inactive: -0.024 | inactive: 0.026 | inactive: 0.025
7 | KTN1 (UniProt Q86UP2) | inactive: -0.006 | inactive: 0.023 | inactive: -0.002 | inactive: -0.017 | inactive: -0.02 | inactive: -0.009 | inactive: -0.087 | inactive: -0.006 | inactive: 0.003 | inactive: 0.01 | inactive: 0.017 | inactive: -0.004 | inactive: -0.009 | inactive: -0.055 | inactive: -0.001 | inactive: 0.033 | inactive: -0.002 | inactive: 0.013 | inactive: 0.005 | inactive: -0.016
8 | LAMA2 (UniProt P24043) | inactive: 0.073 | inactive: 0.054 | inactive: 0.073 | inactive: -0.001 | inactive: -0.008 | inactive: -0.027 | inactive: 0.006 | inactive: -0.13 | inactive: 0.138 | inactive: 0.032 | inactive: -0.023 | inactive: 0.016 | inactive: -0.03 | inactive: -0.133 | inactive: 0.008 | inactive: 0.041 |  |  | inactive: 0.029 | inactive: -0.14
9 | LAMTOR5 (UniProt O43504) | inactive: 0.067 | inactive: -0.015 | inactive: -0.031 | inactive: 0.032 | inactive: -0.025 | inactive: -0.011 | inactive: 0.018 | inactive: -0.111 | inactive: 0.071 | inactive: -0.02 | inactive: 0.026 | inactive: -0.035 | inactive: 0.078 | inactive: -0.039 | inactive: 0.011 | inactive: -0.118 | inactive: -0.019 | inactive: 0.008 | inactive: -0.032 | inactive: 0.048
10 | KIF1C (UniProt O43896) | inactive: 0.055 | inactive: 0.056 | inactive: 0.148 | inactive: -0.021 | inactive: -0.023 | inactive: 0.001 | inactive: -0.223 | inactive: -0.007 | inactive: 0.238 | inactive: 0.087 | inactive: -0.253 | inactive: -0.008 | inactive: 0.058 | inactive: -0.078 | inactive: 0.011 | inactive: 0.117 |  | inactive: -0.041 | inactive: -0.169 | inactive: -0.007
11 | LANCL2 (UniProt Q9NS86) | inactive: 0 | inactive: 0.01 | inactive: 0.057 | inactive: -0.033 | inactive: 0.024 | inactive: -0.002 | inactive: 0.005 | inactive: -0.028 | inactive: 0.039 | inactive: 0.003 | inactive: -0.015 | inactive: -0.001 | inactive: 0.012 | inactive: -0.016 | inactive: 0 | inactive: -0.028 | inactive: -0.049 | inactive: 0.02 | inactive: 0 | inactive: -0.024
12 | L1RE1 (UniProt Q9UN81) | inactive: -0.001 | inactive: -0.045 | inactive: -0.044 | inactive: -0.11 | inactive: 0.158 | inactive: 0.015 | inactive: 0.011 | inactive: 0.022 | inactive: -0.079 | inactive: -0.004 | inactive: -0.036 | inactive: -0.1 | inactive: -0.005 | inactive: -0.101 | inactive: -0.008 | inactive: 0.057 | inactive: -0.023 | inactive: -0.016 | inactive: 0.023 | inactive: 0
13 | LAGE3 (UniProt Q14657) | inactive: 0.028 | active: 0.342 | inactive: 0.074 | inactive: -0.008 | inactive: -0.092 | inactive: -0.018 | inactive: 0.091 | inactive: 0 | inactive: 0.022 | inactive: 0.06 | inactive: 0.047 | inactive: 0.002 | inactive: 0.012 | inactive: 0 | inactive: -0.004 | inactive: -0.147 | inactive: -0.098 | inactive: -0.002 | inactive: 0.031 | inactive: 0.046
14 | KPNA6 (UniProt O60684) | inactive: 0.02 | inactive: 0.041 | inactive: -0.004 | inactive: 0.009 | inactive: 0.033 | inactive: -0.003 | inactive: 0.056 | inactive: -0.008 | inactive: 0.01 | inactive: -0.026 | inactive: -0.005 | inactive: -0.014 | inactive: 0.013 | inactive: 0.022 | inactive: 0.033 | inactive: -0.003 | inactive: -0.02 | inactive: 0.068 | inactive: 0.025 | inactive: -0.002
15 | KIF23 isoform 2 (UniProt Q02241) | inactive: -0.003 | inactive: -0.003 | inactive: 0.073 | inactive: -0.013 | inactive: -0.007 | inactive: 0.005 | inactive: -0.072 | inactive: -0.007 | inactive: -0.018 | inactive: 0.035 | inactive: -0.007 | inactive: 0.013 | inactive: 0.044 | inactive: -0.034 | inactive: 0.024 | inactive: -0.013 | inactive: -0.038 | inactive: 0.007 | inactive: 0.028 | inactive: 0.071
16 | LAMB1 (UniProt P07942) | inactive: -0.036 | inactive: 0.069 | inactive: 0.031 | inactive: -0.054 | inactive: -0.029 | inactive: -0.001 | inactive: -0.022 | inactive: 0.036 | inactive: 0.03 | inactive: -0.021 | inactive: 0.043 | inactive: 0.019 | inactive: 0.059 | inactive: 0.01 | inactive: 0.004 | inactive: 0 | inactive: -0.008 | inactive: -0.016 | inactive: 0.047 | inactive: 0

In a second layout: results already given.
Row	Target	log2 fold change (erlotinib)	log2 fold change [1]	log2 fold change [2]	log2 fold change [3]	log2 fold change [4]	log2 fold change [5]	log2 fold change [6]	log2 fold change [7]	log2 fold change [8]	log2 fold change (IRAK-1-4 Inhibitor I)	log2 fold change (ibrutinib)	log2 fold change [9]	log2 fold change (ralimetinib)	log2 fold change [10]	log2 fold change [11]	log2 fold change [12]	log2 fold change [13]	log2 fold change [14]	log2 fold change [15]	log2 fold change [16]
3	KIAA0100 (UniProt Q14667)	inactive: -0.069	inactive: 0.021	inactive: 0.029	inactive: -0.196	inactive: 0.013	inactive: -0.03	inactive: -0.141	inactive: 0.055	inactive: 0.236	inactive: 0.011	inactive: -0.047	inactive: 0	inactive: -0.027	inactive: -0.167	inactive: 0.042	inactive: 0.009	inactive: -0.091	inactive: -0.005	inactive: 0.068	inactive: 0.036
10	KIF1C (UniProt O43896)	inactive: 0.055	inactive: 0.056	inactive: 0.148	inactive: -0.021	inactive: -0.023	inactive: 0.001	inactive: -0.223	inactive: -0.007	inactive: 0.238	inactive: 0.087	inactive: -0.253	inactive: -0.008	inactive: 0.058	inactive: -0.078	inactive: 0.011	inactive: 0.117		inactive: -0.041	inactive: -0.169	inactive: -0.007
